Values from PubChem BioAssay AID1224826 (NIAID, 2016)
Screen: 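Knock-downs that raise or lower Tnf reporter signal after endotoxin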 (primary screen). Cells: RAW264.7 G9 macrophages from mouse bearing reporters for p65 (GFP) and the Tnf promoter (mCherry). Knock-down reagent: siRNA pool against mouse genes, 100 nM. Time to read-out: 16 h of LPS stimulation, after 2 days of siRNA transfection. Treatment: bacterial lipopolysaccharide (Salmonella minnesota R595), 10 ng/ml. Detection: 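Imaged Tnf reporter mCherry in nuclei, minus background, normalised per plate to the median and expressed as robust z-scores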. Scale: Tnf reporter robust z-score: higher = stronger Tnf promoter reporter signal after LPS. Call rule: 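a well counts as active at a score of -1.3 or below (Tlr4 knock-down control median) or above 3 (raised signal); controls and wells holding fewer than 50 cells are excluded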. Meaning of the calls: active = Tnf reporter clearly lowered or raised; inactive = no clear change in Tnf reporter.
Here is an unselected part of about 17,000 deposited reagents. Over the whole deposit, about 1,110 (6.6%) were called active. 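Active means lowered or raised reporter signal; replicate intensities are raw and not normalised per plate.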 Further read-outs or replicates are left out here.

| target gene | Tnf reporter robust z-score | fewer than 50 cells in well | outcome |
| --- | --- | --- | --- |
| Bace1 (GeneID 23821) | 0.46 | enough cells in well | inactive |
| Ppp4r3b (GeneID 104570) | -0.21 | enough cells in well | inactive |
| Zfp523 (GeneID 224656) | 0.62 | enough cells in well | inactive |
| Dynlt5 (GeneID 67344) | 5.95 | enough cells in well | active |
| Mzf1 (GeneID 109889) | -0.13 | enough cells in well | inactive |
| Shc2 (GeneID 216148) | 1.63 | enough cells in well | inactive |
| Sytl1 (GeneID 269589) | 0.4 | enough cells in well | inactive |
| Tnfsf9 (GeneID 21950) | – | fewer than 50 cells per well; well left out of calls | inactive |
| Ndufc1 (GeneID 66377) | -0.11 | enough cells in well | inactive |
| Tlnrd1 (GeneID 80889) | 0.99 | enough cells in well | inactive |
| Jak2 (GeneID 16452) | -0.62 | enough cells in well | inactive |
| Naalad2 (GeneID 72560) | -0.66 | enough cells in well | inactive |
| Rora (GeneID 19883) | -0.94 | enough cells in well | inactive |
| Oga (GeneID 76055) | 0.29 | enough cells in well | inactive |
| Aldoart2 (GeneID 79459) | -0.53 | enough cells in well | inactive |
| Fcgr2b (GeneID 14130) | -0.8 | enough cells in well | inactive |
| Tmem97 (GeneID 69071) | -0.84 | enough cells in well | inactive |
| Zfp3 (GeneID 193043) | 0.27 | enough cells in well | inactive |
| Adhfe1 (GeneID 76187) | 0.85 | enough cells in well | inactive |
| Iqce (GeneID 74239) | 1.72 | enough cells in well | inactive |
| Cst13 (GeneID 69294) | – | fewer than 50 cells per well; well left out of calls | inactive |
| Or5d20 (GeneID 258642) | -1.41 | enough cells in well | active |
| Tspan31 (GeneID 67125) | -0.1 | enough cells in well | inactive |
| Commd5 (GeneID 66398) | -0.24 | enough cells in well | inactive |
| Fa2h (GeneID 338521) | 2.52 | enough cells in well | inactive |
| Cd226 (GeneID 225825) | -0.47 | enough cells in well | inactive |
| Zfp239 (GeneID 22685) | – | fewer than 50 cells per well; well left out of calls | inactive |
| Ffar2 (GeneID 233079) | -0.26 | enough cells in well | inactive |
| Cog1 (GeneID 16834) | -0.11 | enough cells in well | inactive |
| Csad (GeneID 246277) | -0.78 | enough cells in well | inactive |
| Lama2 (GeneID 16773) | -0.1 | enough cells in well | inactive |
| Cdc45 (GeneID 12544) | -0.33 | enough cells in well | inactive |
| Ptprs (GeneID 19280) | 0.29 | enough cells in well | inactive |
| Sphk2 (GeneID 56632) | 0.74 | enough cells in well | inactive |
| Il12rb1 (GeneID 16161) | 0.29 | enough cells in well | inactive |
| Cdk10 (GeneID 234854) | 0.19 | enough cells in well | inactive |
| Serpina11 (GeneID 380780) | – | fewer than 50 cells per well; well left out of calls | inactive |
| Ampd3 (GeneID 11717) | 1.7 | enough cells in well | inactive |
| Or14j3 (GeneID 258284) | -1.62 | enough cells in well | active |
| App (GeneID 11820) | 0.32 | enough cells in well | inactive |
| Rplp2 (GeneID 67186) | -1.07 | enough cells in well | inactive |
| Or6c1b (GeneID 258542) | – | fewer than 50 cells per well; well left out of calls | inactive |
| Or5j3 (GeneID 259012) | 1.04 | enough cells in well | inactive |
| Rnpc3 (GeneID 67225) | -0.54 | enough cells in well | inactive |
| Mob3b (GeneID 214944) | 5.3 | enough cells in well | active |
| Tspan7 (GeneID 21912) | 0.55 | enough cells in well | inactive |
| Slc41a2 (GeneID 338365) | 0.29 | enough cells in well | inactive |
| Plagl2 (GeneID 54711) | 0.15 | enough cells in well | inactive |
| Lyar (GeneID 17089) | -0.2 | enough cells in well | inactive |
| Cubn (GeneID 65969) | -1.15 | enough cells in well | inactive |
| Bend6 (GeneID 320705) | -1.81 | enough cells in well | active |
| Ugt3a2 (GeneID 105887) | -0.94 | enough cells in well | inactive |
| Phf1 (GeneID 21652) | -0.59 | enough cells in well | inactive |
| Smarcad1 (GeneID 13990) | 0.09 | enough cells in well | inactive |
| Man1c1 (GeneID 230815) | -0.6 | enough cells in well | inactive |
| Lmntd1 (GeneID 74071) | – | fewer than 50 cells per well; well left out of calls | inactive |
| Slc22a22 (GeneID 210463) | 0.74 | enough cells in well | inactive |
| Tead2 (GeneID 21677) | – | fewer than 50 cells per well; well left out of calls | inactive |

Hits, of those listed so far:
| target gene | Tnf reporter robust z-score | fewer than 50 cells in well | outcome |
| --- | --- | --- | --- |
| Dynlt5 (GeneID 67344) | 5.95 | enough cells in well | active |
| Or5d20 (GeneID 258642) | -1.41 | enough cells in well | active |
| Or14j3 (GeneID 258284) | -1.62 | enough cells in well | active |
| Mob3b (GeneID 214944) | 5.3 | enough cells in well | active |
| Bend6 (GeneID 320705) | -1.81 | enough cells in well | active |
